# From PubChem BioAssay (EPA / NIEHS)
# Amino acid sequences for entries named in this document (tags omitted). A change or cut given only in a name is not applied to a line headed by its entry.
# UniProt Q92731, whole entry, looked up: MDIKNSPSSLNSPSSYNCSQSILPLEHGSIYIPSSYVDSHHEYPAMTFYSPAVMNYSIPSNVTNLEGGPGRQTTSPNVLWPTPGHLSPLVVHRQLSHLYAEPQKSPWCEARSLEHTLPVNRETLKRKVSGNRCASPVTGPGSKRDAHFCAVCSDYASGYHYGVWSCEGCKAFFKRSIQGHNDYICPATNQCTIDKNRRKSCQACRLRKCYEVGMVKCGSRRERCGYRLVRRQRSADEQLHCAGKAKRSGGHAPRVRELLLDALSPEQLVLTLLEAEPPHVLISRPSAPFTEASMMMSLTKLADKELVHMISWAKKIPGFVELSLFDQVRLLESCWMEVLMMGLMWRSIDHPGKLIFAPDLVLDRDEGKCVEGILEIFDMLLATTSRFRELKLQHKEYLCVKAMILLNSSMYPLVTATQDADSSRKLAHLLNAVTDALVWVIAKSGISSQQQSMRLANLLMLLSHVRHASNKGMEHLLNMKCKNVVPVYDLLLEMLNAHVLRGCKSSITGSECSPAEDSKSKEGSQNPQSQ
# UniProt Q13464: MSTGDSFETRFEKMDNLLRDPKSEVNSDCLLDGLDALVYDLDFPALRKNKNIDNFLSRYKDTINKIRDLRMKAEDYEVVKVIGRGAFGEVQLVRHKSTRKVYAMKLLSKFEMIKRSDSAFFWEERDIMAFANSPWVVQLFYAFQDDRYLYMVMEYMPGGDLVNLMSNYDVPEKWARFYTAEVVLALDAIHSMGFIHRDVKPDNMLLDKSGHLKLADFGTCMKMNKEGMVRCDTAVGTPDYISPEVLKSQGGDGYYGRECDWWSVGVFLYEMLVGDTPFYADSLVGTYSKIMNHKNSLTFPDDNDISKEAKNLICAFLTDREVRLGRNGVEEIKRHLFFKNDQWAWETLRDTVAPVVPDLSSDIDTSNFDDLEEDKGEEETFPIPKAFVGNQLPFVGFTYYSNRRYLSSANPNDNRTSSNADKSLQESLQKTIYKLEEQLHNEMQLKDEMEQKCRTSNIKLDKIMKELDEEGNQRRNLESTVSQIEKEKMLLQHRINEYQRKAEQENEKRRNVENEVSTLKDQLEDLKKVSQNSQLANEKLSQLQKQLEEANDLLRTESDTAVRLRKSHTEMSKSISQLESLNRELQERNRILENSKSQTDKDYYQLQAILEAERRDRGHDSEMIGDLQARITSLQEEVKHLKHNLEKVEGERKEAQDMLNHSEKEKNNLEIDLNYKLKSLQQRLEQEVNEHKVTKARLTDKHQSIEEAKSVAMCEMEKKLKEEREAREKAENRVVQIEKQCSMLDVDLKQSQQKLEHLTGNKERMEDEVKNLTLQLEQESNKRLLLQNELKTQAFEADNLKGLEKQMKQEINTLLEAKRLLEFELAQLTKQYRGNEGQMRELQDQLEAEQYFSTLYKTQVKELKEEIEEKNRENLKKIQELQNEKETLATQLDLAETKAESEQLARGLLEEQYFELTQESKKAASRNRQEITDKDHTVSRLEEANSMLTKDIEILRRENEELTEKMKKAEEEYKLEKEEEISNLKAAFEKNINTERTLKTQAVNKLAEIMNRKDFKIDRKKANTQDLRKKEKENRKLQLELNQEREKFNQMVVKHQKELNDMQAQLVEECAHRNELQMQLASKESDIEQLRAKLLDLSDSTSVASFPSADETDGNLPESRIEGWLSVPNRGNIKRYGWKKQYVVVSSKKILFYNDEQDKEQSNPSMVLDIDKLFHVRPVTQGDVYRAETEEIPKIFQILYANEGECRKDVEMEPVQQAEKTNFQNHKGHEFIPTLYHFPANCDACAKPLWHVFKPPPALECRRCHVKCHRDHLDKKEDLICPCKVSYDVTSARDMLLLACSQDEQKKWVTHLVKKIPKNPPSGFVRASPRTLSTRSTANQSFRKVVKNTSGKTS
# UniProt P62813: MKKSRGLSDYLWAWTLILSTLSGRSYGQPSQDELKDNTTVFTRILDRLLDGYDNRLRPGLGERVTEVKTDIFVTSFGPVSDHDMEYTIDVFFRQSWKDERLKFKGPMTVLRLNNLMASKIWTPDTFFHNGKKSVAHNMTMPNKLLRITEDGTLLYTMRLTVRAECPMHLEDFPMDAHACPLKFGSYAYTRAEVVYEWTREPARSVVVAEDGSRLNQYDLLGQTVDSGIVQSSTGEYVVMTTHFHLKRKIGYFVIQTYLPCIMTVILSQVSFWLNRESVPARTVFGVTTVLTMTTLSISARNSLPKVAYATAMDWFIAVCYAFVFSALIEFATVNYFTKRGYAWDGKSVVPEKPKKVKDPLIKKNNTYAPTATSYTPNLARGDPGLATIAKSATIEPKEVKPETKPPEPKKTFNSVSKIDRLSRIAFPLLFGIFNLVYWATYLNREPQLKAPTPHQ
# UniProt P14780: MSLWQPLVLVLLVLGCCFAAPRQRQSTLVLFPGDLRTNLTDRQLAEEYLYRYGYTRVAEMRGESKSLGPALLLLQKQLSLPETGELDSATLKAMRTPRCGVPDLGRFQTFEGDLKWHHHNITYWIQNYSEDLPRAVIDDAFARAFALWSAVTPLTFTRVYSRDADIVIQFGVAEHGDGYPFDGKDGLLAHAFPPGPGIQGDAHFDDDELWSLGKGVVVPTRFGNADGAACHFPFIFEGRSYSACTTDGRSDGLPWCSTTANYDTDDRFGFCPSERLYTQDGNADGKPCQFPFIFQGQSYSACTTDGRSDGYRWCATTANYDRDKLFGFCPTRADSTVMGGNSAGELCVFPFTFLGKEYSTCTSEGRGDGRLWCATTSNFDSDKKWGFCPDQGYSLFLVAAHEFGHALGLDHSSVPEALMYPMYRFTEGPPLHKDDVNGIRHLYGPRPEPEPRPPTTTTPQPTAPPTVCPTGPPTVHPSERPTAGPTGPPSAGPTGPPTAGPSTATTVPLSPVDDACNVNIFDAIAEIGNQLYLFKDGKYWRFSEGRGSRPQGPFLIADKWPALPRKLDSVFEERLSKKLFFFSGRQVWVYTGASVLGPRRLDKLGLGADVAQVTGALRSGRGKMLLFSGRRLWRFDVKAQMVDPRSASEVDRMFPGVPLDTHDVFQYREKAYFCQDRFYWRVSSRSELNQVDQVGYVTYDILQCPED
# UniProt P11509: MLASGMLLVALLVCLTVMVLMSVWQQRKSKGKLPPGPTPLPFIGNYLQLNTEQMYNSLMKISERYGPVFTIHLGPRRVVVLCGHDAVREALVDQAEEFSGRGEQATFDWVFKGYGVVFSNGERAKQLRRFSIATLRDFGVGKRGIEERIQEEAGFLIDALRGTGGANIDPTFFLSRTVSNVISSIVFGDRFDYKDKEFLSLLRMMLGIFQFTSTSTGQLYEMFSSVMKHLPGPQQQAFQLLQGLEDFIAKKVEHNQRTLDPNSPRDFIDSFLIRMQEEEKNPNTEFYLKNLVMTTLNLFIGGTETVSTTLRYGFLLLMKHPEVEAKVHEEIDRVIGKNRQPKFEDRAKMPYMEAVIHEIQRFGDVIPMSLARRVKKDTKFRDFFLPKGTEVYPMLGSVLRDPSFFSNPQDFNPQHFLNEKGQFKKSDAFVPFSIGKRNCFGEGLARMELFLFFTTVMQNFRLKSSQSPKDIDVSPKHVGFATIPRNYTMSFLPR
# UniProt P10276, whole entry, looked up: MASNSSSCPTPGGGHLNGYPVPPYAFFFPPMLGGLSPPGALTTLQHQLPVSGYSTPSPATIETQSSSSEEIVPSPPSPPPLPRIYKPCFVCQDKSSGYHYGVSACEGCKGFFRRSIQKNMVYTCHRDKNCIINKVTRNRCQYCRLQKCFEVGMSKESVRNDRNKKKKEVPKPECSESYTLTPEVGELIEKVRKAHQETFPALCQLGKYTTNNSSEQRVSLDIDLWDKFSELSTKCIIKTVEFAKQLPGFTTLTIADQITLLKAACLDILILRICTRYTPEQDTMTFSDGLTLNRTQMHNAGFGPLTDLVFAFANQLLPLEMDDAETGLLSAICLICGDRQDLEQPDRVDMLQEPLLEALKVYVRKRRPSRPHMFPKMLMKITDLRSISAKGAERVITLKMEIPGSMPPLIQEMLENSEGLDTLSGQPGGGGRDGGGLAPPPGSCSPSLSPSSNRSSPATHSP
# UniProt P43378: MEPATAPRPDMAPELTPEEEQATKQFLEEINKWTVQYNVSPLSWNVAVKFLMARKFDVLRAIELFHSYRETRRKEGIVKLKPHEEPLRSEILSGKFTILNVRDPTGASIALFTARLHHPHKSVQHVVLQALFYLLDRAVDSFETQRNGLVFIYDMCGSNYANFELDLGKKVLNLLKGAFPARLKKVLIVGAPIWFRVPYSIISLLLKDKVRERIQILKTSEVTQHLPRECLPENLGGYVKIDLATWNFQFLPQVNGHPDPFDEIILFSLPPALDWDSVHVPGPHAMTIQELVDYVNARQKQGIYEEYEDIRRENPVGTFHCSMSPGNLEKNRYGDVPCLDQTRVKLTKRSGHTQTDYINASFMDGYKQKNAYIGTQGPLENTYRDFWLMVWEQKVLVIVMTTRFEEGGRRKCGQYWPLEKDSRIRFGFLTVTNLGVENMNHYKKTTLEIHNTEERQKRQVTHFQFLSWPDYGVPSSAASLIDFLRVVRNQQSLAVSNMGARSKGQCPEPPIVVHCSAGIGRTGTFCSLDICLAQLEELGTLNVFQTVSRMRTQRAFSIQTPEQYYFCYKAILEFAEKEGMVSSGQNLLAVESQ
# UniProt P10828: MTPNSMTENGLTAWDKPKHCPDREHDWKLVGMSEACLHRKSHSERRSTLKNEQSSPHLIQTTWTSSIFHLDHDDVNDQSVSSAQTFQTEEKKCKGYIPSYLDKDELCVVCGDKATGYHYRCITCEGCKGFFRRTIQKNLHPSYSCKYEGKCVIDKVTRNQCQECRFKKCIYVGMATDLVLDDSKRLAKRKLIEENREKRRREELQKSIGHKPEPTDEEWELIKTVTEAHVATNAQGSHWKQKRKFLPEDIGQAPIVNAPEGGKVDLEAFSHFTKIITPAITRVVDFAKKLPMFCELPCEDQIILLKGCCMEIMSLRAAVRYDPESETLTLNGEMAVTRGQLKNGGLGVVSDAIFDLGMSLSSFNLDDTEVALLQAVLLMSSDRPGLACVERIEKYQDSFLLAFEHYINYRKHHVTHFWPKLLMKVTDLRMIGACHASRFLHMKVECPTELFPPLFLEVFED
# UniProt P37231: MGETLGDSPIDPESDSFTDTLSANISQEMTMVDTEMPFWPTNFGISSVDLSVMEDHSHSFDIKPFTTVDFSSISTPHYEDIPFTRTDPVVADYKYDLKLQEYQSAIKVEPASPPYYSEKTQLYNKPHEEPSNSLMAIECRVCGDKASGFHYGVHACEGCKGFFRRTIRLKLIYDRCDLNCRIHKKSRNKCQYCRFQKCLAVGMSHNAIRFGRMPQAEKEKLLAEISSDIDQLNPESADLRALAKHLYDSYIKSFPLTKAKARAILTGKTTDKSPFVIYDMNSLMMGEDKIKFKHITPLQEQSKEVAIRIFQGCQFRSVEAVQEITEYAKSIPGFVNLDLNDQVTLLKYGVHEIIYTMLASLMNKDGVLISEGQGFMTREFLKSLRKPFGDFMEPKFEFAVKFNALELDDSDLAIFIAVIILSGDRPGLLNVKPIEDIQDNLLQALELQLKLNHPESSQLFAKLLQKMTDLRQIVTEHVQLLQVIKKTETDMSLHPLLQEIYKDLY
# UniProt P03372, whole entry, looked up: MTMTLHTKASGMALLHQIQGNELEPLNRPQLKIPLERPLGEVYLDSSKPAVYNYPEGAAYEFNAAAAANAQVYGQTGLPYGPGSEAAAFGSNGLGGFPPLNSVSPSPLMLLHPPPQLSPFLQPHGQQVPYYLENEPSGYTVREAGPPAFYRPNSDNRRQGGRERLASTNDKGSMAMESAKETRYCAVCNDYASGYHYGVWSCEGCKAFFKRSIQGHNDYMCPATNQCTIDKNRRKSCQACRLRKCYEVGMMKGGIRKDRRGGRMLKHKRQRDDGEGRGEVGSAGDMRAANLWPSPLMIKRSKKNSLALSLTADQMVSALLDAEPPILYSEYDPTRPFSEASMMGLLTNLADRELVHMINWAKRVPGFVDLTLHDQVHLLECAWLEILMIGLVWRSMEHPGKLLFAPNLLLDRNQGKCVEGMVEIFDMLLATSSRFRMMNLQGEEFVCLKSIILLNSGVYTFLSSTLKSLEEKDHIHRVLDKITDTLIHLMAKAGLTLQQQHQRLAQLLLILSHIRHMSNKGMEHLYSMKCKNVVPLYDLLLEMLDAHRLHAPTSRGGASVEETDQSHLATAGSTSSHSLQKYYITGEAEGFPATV
# This list was built around the results that the source calls inconclusive (neither active nor inactive); the mix of calls is not that of the screen. For part of these data: Potencies of inconclusive entries are doubtful fits and often do not repeat. Calls of active or inactive are those of the source. Rule for the calls: active = hit-call score of the fitted dose curve at least 0.9, where 1 is the maximum; inconclusive = response in the unintended direction; inactive = score below 0.9.
# Key:
# [1] = target: Estrogen receptor beta (Homo sapiens) (UniProt Q92731); assay: OT_ER_ERbERb_1440: Odyssey Thera (OT) 24-hour HEK293T Protein-Complementation Assay for Estrogen Receptor-beta/-beta Homodimer (AID 2283380);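 note: fluorescence gain from ER beta LBD homodimer complementation read by laser scanning cytometry; scored as signal increase over DMSO baseline for both agonists and antagonists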
# Summary of the method: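 Fluorescence increase, nuclear for agonists or whole-cell for antagonists, relative to DMSO vehicle, quantified by laser scanning cytometer after fixation and Draq5 staining. Readout from 24 h treatment of HEK293T cells carrying complementation-paired ER beta LBD (aa 310-547).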
# [2] = target: human Rho Associated Coiled-coil Containing Protein Kinase 1 (ROCK1), ROCK1 (gene 6093) (UniProt Q13464); assay: NVS_ENZ_hROCK1: NovaScreen (NVS) Enzymatic Assay for human Rho Associated Coiled-coil Containing Protein Kinase 1 (ROCK1) (AID 2283214)
# Summary of the method: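 Cell-free recombinant human ROCK1 activity assay; fluorescent substrate and product separated by electrophoretic mobility shift, read 1 h after dosing. Screened in duplicate at 25 uM; loss of signal versus DMSO baseline scored as inhibition.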
# [3] = system: frog Estrogen Receptor (ESR1), gene 398734; assay: ATG_frER1_XSP1: Attagene TRANS-FACTORIAL Multi-Species (XSP1) HepG2 Assay for frog Estrogen Receptor (ESR1) (AID 2283777)
# Summary of the method: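 Human hepatoma HepG2 cells carried transiently transfected multiplexed Gal4-driven reporters and were exposed to test chemicals for 24 hours. Transcripts were quantified by fluorescent RT-PCR with capillary electrophoresis, referenced to DMSO.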
# [4] = target: chicken Estrogen Receptor (ESR1), ESR1 (gene 396099) (UniProt P06212); assay: ATG_chERa_XSP1: Attagene TRANS-FACTORIAL Multi-Species (XSP1) HepG2 Assay for chicken Estrogen Receptor (ESR1) (AID 2283779)
# Summary of the method: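 Human liver HepG2, transient MRTU transfection (NR-Gal4 chimeras, GAL4-UAS reporters); 24 h compound exposure; 3 nM 6-alpha-fluorotestosterone in medium. Total RNA → RT-PCR → 6-FAM primer extension → HpaI → CE. Positive direction vs DMSO baseline.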
# [5] = system: turtle Estrogen Receptor (ESR1), gene 101933533; assay: ATG_trERa_XSP1: Attagene TRANS-FACTORIAL Multi-Species (XSP1) HepG2 Assay for turtle Estrogen Receptor (ESR1) (AID 2283781)
# Summary of the method: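 Activity was taken as gain of reporter transcript over DMSO controls. HepG2 cells carrying GAL4-UAS-driven reporters were exposed for 24 h before RNA was extracted and reporter sequences were measured by fluorescence after capillary separation.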
# [6] = target: chicken Estrogen Receptor (ERa), ESR1 (gene 396099) (UniProt P06212); assay: ATG_chERa_XSP2: Attagene TRANS-FACTORIAL Multi-Species (XSP2) HepG2 Assay for chicken Estrogen Receptor (ERa) (AID 2283817);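 note: actives raise reporter signal above DMSO so AC50 reflects ER activation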
# Summary of the method: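 Transient MRTU transfection of HepG2 → 24 h chemical dosing → TriZol RNA, oligo(dT) RT → PCR, 6-FAM primer extension, HpaI digest → CE quantitation of chicken ERa-Gal4-driven reporter mRNA. Positive direction vs DMSO.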
# [7] = system: frog Estrogen Receptor (ER), gene 398734; assay: ATG_frER1_XSP2: Attagene TRANS-FACTORIAL Multi-Species (XSP2) HepG2 Assay for frog Estrogen Receptor (ER) (AID 2283821);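 note: hits raise reporter mRNA above DMSO baseline so potency means agonist or activator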
# Summary of the method: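 Steps: transfect HepG2 with multiple reporter transcription units; treat with chemical for 24 h; isolate RNA, reverse-transcribe, PCR-amplify, label with 6-FAM, digest with HpaI; resolve fragments by capillary electrophoresis. Signal is scored against DMSO.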
# [8] = target: rat Gamma-Aminobutyric Acid Type A Receptor, Non-Selective (GABAR-NonSelective), Gabra1 (gene 29705) (UniProt P62813); assay: NVS_LGIC_rGABAR_NonSelective: NovaScreen (NVS) Ligand-Gated Ion Channel Assay for rat Gamma-Aminobutyric Acid Type A Receptor, Non-Selective (GABAR-NonSelective) (AID 2283326)
# Summary of the method: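 Radioligand displacement on rat whole-brain extract, 1 h, filter scintillation readout; signal loss fitted versus DMSO. Primary screen in duplicate at 25 uM; hits (e.g. ≥30% inhibition) retested in concentration-response up to 50 uM.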
# [9] = target: human Matrix Metalloproteinase-9 (MMP9), MMP9 (gene 4318) (UniProt P14780); assay: NVS_ENZ_hMMP9: NovaScreen (NVS) Enzymatic Assay for human Matrix Metalloproteinase-9 (MMP9) (AID 2283190);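 note: cell-free recombinant MMP9 protease activity read by fluorescent substrate signal; active means inhibition seen as loss of fluorescence signal versus DMSO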
# Summary of the method: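 Inhibition was scored as loss of fluorescence signal against DMSO controls. The recombinant protease was exposed to chemicals for 1 hour before reading; initial testing used 25 uM in duplicate.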
# [10] = target: human CYP2A6, CYP2A6 (gene 1548) (UniProt P11509); assay: NVS_ADME_hCYP2A6: NovaScreen (NVS) CYP450-related Enzyme Activity (ADME) Assay for human CYP2A6 (AID 2283099)
# Summary of the method: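 Insect-cell-expressed human CYP2A6 enzyme activity measured by fluorescence intensity 0.5 hour post-dosing. Compounds screened at 10 uM in duplicate, then hits tested singly in concentration series (max 20 uM); acetonitrile baseline.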
# [11] = target: human Beta-secretase (BACE), BACE1 (gene 23621) (UniProt P56817); assay: NVS_ENZ_hBACE: NovaScreen (NVS) Enzymatic Assay for human Beta-secretase (BACE) (AID 2283140);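 note: hits are inhibitors that reduce fluorescent substrate signal versus DMSO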
# Summary of the method: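 Recombinant BACE1 (SF9 extract) incubated with compound and fluorescent substrate, 1 h. Plates carried positive and DMSO negative controls. Initial single dose 25 uM, duplicate; confirmation by concentration series.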
# [12] = target: Retinoic acid receptor alpha (Homo sapiens) (UniProt P10276); assay: NVS_NR_hRARa_Agonist: NovaScreen (NVS) Nuclear Receptor Binding Assay for human Retinoic Acid Alpha Receptor Agonism (RAR) (AID 2283361)
# Summary of the method: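 Readout is time-resolved fluorescence resonance energy transfer after a 2 h exposure of cell-free extracted receptor protein. Initial testing used 25 uM in duplicate, with concentration-response follow-up for active chemicals.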
# [13] = target: human Protein Tyrosine Phosphatase Non-receptor Type 4 (PTPN4), PTPN4 (gene 5775) (UniProt P29074); assay: NVS_ENZ_hPTPN4: NovaScreen (NVS) Enzymatic Assay for human Protein Tyrosine Phosphatase Non-receptor Type 4 (PTPN4) (AID 2283208)
# Summary of the method: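 Cell-free assay of PTPN4 expressed in Sf9 cells, using a fluorescent substrate with product separated by mobility shift; read 1.33 h after dosing. Single-point screen at 25 uM, then concentration-response up to 50 uM. Loss of signal relative to DMSO.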
# [14] = target: human Protein Tyrosine Phosphatase Non-receptor Type 9 (PTPN9), PTPN9 (gene 5780) (UniProt P43378); assay: NVS_ENZ_hPTPN9: NovaScreen (NVS) Enzymatic Assay for human Protein Tyrosine Phosphatase Non-receptor Type 9 (PTPN9) (AID 2283209)
# Summary of the method: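 Sf9-expressed enzyme in a cell-free assay, fluorescence read 1.33 h after dosing with mobility-shift separation of substrate and product. Tested at 25 uM in duplicate, then up to 50 uM; signal loss versus DMSO.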
# THRB (gene 7068) = THRB (gene 7068) (UniProt P10828); assay: TOX21_TRB_BLA_Agonist_Followup_ratio: Tox21 Thyroid Hormone Receptor beta Agonism Beta-lactamase (BLA) Follow-Up Assay, Ratio (AID 2283954)
# Summary of the method: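 Human TRβ LBD–GAL4 DBD fusion in GeneBLAzer UAS-bla HEK293T cells; 11 concentrations in triplicate, 18 h at 37°C/5% CO2, T3 as agonist control. CCF4-AM substrate 2 h at room temperature; 460:530 nm ratio fitted for gain of signal versus DMSO.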
# [15] = target: Cytochrome P450 3A4 (Homo sapiens) (UniProt P08684); assay: NVS_ADME_hCYP3A4: NovaScreen (NVS) CYP450-related Enzyme Activity (ADME) Assay for human CYP3A4 (AID 2283110)
# Summary of the method: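 Compounds were first screened in duplicate at 10 uM against recombinant CYP3A4 produced in insect cells, then actives were run in concentration series. Enzyme activity was measured by fluorescence after 0.33 hour, with acetonitrile as baseline.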
# [16] = target: Peroxisome proliferator-activated receptor gamma (Homo sapiens) (UniProt P37231); assay: OT_PPARg_PPARgSRC1_1440: Odyssey Thera (OT) 24-hour Protein-Complementation Assay for Peroxisome Proliferator-activated Receptor Gamma/ SRC-1 Co-activator (AID 2283388);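 note: nuclear to cytoplasmic ratio of reconstituted Venus YFP fluorescence in fixed imaged cells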
# Summary of the method: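 Readout: nuclear-to-cytoplasmic 488 nm fluorescence ratio, ≥350 cells per image, 8 images per well, after 24 h compound exposure of HEK293T expressing PPARg/SRC-1 split-YFP fusions. Activity fitted in positive direction against DMSO.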
# [17] = target: Estrogen receptor (Homo sapiens) (UniProt P03372); assay: CCTE_Deisenroth_AIME_384WELL_LUC_Active: CCTE's 384-well Estrogen Receptor Transactivation Assay with AIME metabolic competence (ERTA luciferase; metabolism positive), Deisenroth Lab (AID 2284030)
# Summary of the method: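 Readout: bioluminescent luciferase induction in VM7Luc4E2 cells 24 hour after receiving medium from a 2 h rat hepatic S9 (induced, alginate microsphere) metabolism step. Concentrations 0.002 - 200 uM; activity scaled to 17beta-estradiol positive control.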
# [18] = target: bovine Gamma-Aminobutyric Acid Type A Receptor BDZ, alpha 5 site (GABARa5), GABRA5 (gene 523515) (UniProt Q08E50); assay: NVS_LGIC_bGABARa5: NovaScreen (NVS) Ligand-Gated Ion Channel Assay for bovine Gamma-Aminobutyric Acid Type A Receptor BDZ, alpha 5 site (GABARa5) (AID 2283323)
# Summary of the method: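 Radioligand competitive displacement binding on bovine hippocampal membranes, read 1 hr after dosing by filter-based scintillation counting. Primary screen at 25 uM in duplicate; actives (e.g. ≥30% inhibition) then run in concentration-response up to 50 uM.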
# [19] = NVS_IC_rCaBTZCHL: NovaScreen (NVS) Ion Channel Assay for Calcium Channel, Type L, Benzothiazepine Site (CaBTZCHL) (AID 2283337)
# Summary of the method: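 Competitive displacement of a site-specific radioligand from rat cortex membranes, measured as signal loss against DMSO baseline by filter radiodetection after 1.5 h. Single-point 25 uM primary screen.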
structure (smiles),measurement,setting,value
COCC(C)N(C(=O)CCl)c1c(C)csc1C (stereo not given),AC50,[1],inconclusive: 50 µM
C#CCC1=C(C)C(OC(=O)C2C(C=C(C)C)C2(C)C)CC1=O (stereo not given),AC50,[2],inconclusive: 25 µM
same,AC50,[3],inconclusive: 140 µM
same,AC50,[4],inconclusive: 183 µM
same,AC50,[5],inconclusive: 164 µM
same,AC50,[6],inconclusive: 183 µM
CCc1cccc(C)c1N(C(=O)CCl)C(C)COC (stereo not given),AC50,[7],inconclusive: 100 µM
COc1cc(OC)nc(NC(=O)NS(=O)(=O)c2cc(NC=O)ccc2C(=O)N(C)C)n1,AC50,[8],inconclusive: 0.836 µM
O=Cc1ccco1,outcome,[9],inactive
Nc1ccc(Oc2ccc(N)cc2)cc1,AC50,[10],inconclusive: 10 µM
Cc1cccc(N)c1N,AC50,[11],inconclusive: 0.239 µM
same,outcome,[12],inactive
CCOP(=S)(OCC)OC(Cl)C(Cl)(Cl)Cl (stereo not given),outcome,[13],inactive
same,AC50,[14],active: 12.7 µM
CC1(C)COP(Oc2ccccc2)OC1,AC50,THRB (gene 7068),inconclusive: 38.3 µM
CCOP(=S)(OCC)OP(=S)(OCC)OCC,AC50,[15],inconclusive: 0.000496 µM
O=C1C(Cl)=C(Cl)C(=O)c2ccccc21,AC50,[16],active: 11.8 µM
same,AC50,[17],inconclusive: 161 µM
CC1=NNC(=O)N(/N=C/c2cccnc2)C1,outcome,[18],inactive
same,outcome,[19],inactive
COC(=O)Nc1nc2ccccc2[nH]1,AC50,[2],inconclusive: 25 µM
Cc1cc(O)ccc1Cl,outcome,[14],inactive
same,AC50,THRB (gene 7068),inconclusive: 38.3 µM
CCOP(=S)(OCC)Oc1ccc(S(C)=O)cc1 (stereo not given),AC50,[15],inconclusive: 0.00794 µM
C[Si](Cn1cncn1)(c1ccc(F)cc1)c1ccc(F)cc1,AC50,[10],active: 1.75 µM
same,AC50,[9],inconclusive: 0.252 µM
same,AC50,[16],inconclusive: 23.9 µM
CCCCOC(=O)c1ccccc1C(=O)OCc1ccccc1,AC50,[6],active: 46.7 µM
CCN(CC)N=O,outcome,[14],inactive
CCCOc1nn(C(=O)NS(=O)(=O)c2ccccc2C(=O)OC)c(=O)n1C,outcome,[13],inactive

# Random excerpt: 2 entries already listed, in no set order.
structure (smiles),measurement,setting,value
C[Si](Cn1cncn1)(c1ccc(F)cc1)c1ccc(F)cc1,AC50,[16],inconclusive: 23.9 µM
CCN(CC)N=O,outcome,[14],inactive
